No constants are given. Whether binding was seen depends on the method and setting. A result given as binding can be weak or reduced; the word gives no strength.
Columns and labels:
[1] = biological target: T1, eADF4(C16) spider silk particles; test: depletion assay at pH 7.0/30 mM, figure legend of FIG. 6A
T1 sequence: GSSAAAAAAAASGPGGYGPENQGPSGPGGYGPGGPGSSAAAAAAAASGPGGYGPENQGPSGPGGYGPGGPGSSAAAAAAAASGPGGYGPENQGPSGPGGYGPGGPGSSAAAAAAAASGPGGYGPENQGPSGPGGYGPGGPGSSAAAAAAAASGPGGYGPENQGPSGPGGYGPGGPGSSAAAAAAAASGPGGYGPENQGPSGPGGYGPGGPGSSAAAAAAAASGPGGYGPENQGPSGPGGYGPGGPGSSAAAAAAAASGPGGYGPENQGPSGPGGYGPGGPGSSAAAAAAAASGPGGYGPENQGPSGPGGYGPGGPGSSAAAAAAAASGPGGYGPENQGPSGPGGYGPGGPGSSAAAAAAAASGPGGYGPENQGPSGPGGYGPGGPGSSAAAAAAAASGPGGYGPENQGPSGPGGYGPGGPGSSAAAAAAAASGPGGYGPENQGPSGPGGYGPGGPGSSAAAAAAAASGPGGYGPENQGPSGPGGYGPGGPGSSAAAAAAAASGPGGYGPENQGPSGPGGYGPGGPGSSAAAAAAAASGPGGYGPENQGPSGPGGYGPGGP

[2] = biological target: T1, eADF4(C16) spider silk particles; test: incubation of lysozyme with silk particles (0.5 mg/ml, 10 mM phosphate pH 7.0, 30 min), centrifugation, residual protein in supernatant by Micro BCA
[3] = biological target: T1, eADF4(C16) spider silk particles; test: depletion assay, lysozyme with silk particles; supernatant by Micro BCA

binding [1]: binds | binding [2]: binds | binding [3]: binds
Substance: Lysozyme (enzyme)

Source: patent publication US20130109762A1
